Assay: general procedure: Fmoc solid-phase peptide synthesis; Rink amide resin (Iris Biotech; loading capacity 0.7 mmol/g)
Conditions: whole synthesis, analytical HPLC, Jupiter Proteo 90 Å 4.6 × 250 mm; identity by MALDI-TOF/TOF MS

With [K^30(PEG2)]hPP2‐36 the “final HPLC purity” value was greater than 95%.
